# Measurements reported in PubChem BioAssay AID504834 (National Center for Advancing Translational Sciences (NCATS), 2011).
# Screen size: about 320,000 compounds; about 22,000 (6.9%) were called active. This list was built around the results that the source calls inconclusive (neither active nor inactive); the mix of calls is not that of the screen. The call rests on the fitted dose curve; in most records, active means well fitted inhibition curve with a large enough effect; inconclusive means small, poorly fitted or top-dose-only effect, or another doubt; inactive means no such curve, though single readings can be large or run the other way. Potencies beside an inconclusive call are fits to weak or partial responses and may not hold up.
# Assay: Primary qHTS for delayed death inhibitors of the malarial parasite plastid, 96 hour incubation
# Conditions: P. falciparum luciferase reporter growth; series mostly up to 28.7 µM; activity change, negative = inhibition: at the top concentration
# How it was run: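 Compounds incubated with erythrocytes infected by luciferase-expressing P. falciparum (2% hematocrit, 0.05% parasitemia final) for 96 hours, 37 C in 5% CO2. Growth inhibition scored as decreased luciferase luminescence.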
# On the % scale 0 is the no-effect control and ±100 the full control effect; potency means the concentration at half of the fitted maximal effect.
SMILES,"activity change, negative = inhibition",Potency
O=C(CSc1nnc(-c2ccncc2)n1Cc1ccco1)Nc1cccc(O)c1,inactive: -4.6%,–
CC(C)c1ccc(N2C(=O)NC(=O)/C(=C\C=C\c3ccco3)C2=O)cc1,inactive: -39%,–
Cc1cccc(NC(=O)CNC(=O)c2ccc3c(c2)OCO3)n1,inactive: 34.3%,–
Cc1ccc(S(=O)(=O)/N=C(/Nc2cccc(O)c2)c2ccccc2)cc1,inactive: 71.8%,–
C=CCSc1nc(-c2ccccc2)c2cc(Cl)ccc2n1,–,"inconclusive: 4.15 µM [inhibitor, partial curve, poor fit]"
C1CCCC(NC2=NCCO2)CCC1,–,"inconclusive: 16.5 µM [inhibitor, single point]"
CC(C)(C)n1nnnc1C(c1cccc(C#N)c1)N1CCN2CCCC2C1 (stereo not given),–,"inconclusive: 0.928 µM [inhibitor, partial curve, poor fit]"
CC(=O)Nc1ccc(CN2CCCN(C)CC2)cc1,inactive: 134%,–
CSc1ccc(CNCCN2CCOCC2)cc1,inactive: -19%,–
CCOc1ccc(-c2c(C(=O)N/N=C/c3ccoc3)nnn2-c2nonc2N)cc1,inactive: 60.5%,–
O=C1CCCc2sccc2N1,–,active: 3.29 µM
S=c1[nH]nc(-c2ccc(Br)cc2)n1Cc1ccco1,–,"inconclusive: 5.86 µM [inhibitor, partial curve]"
Cc1nn2c(N3CCN(C(=O)c4ccco4)CC3)cc(C(C)(C)C)nc2c1-c1ccc(Cl)cc1,–,"inconclusive: 1.47 µM [inhibitor, partial curve]"
COc1ccc2c(c1OC)C(=O)OC2N1C(=O)CC[C@H]1C(=O)Nc1ccc(F)cc1F (stereo not given in full),inactive: -8.22%,–
CC1(C)OC(=CC=Nc2ccc(Cl)cc2)OC1(C)C,–,"inconclusive: 18.5 µM [inhibitor, single point]"
COc1cc(OC)c(/C=N/NC(=O)COc2cccc3cccnc23)c(OC)c1,–,"inconclusive: 0.0026 µM [inhibitor, full curve, poor fit]"
NC(=O)N/N=C/c1ccc(-c2ccc(S(=O)(=O)Nc3ncccn3)cc2)o1,–,"inconclusive: 2.33 µM [inhibitor, full curve]"
C/C(=N/O)c1cccc(N2Cc3ccccc3C2)c1,–,"inconclusive: 9.28 µM [inhibitor, partial curve]"
C=CCn1c(=O)c(C(=O)NCc2ccccc2)c(O)c2ccccc21,inactive: -12.9%,–
CC(C)c1ccc(NC(=O)C2CCC(CNC(=O)[C@@H]3Cc4ccccc4CN3)CC2)cc1 (stereo not given in full),inactive: -4.76%,–
COc1ccc(C)cc1NC(=O)C(=O)N1CCCC1,–,"inconclusive: 3.7 µM [inhibitor, partial curve, poor fit]"
CN(CCc1cnn(C)c1)C(=O)CCc1nnc(CCCc2ccccc2)o1,–,"inconclusive: 16.5 µM [inhibitor, partial curve, poor fit]"
COc1ccccc1OCC(=O)OC/C(O)=C(\C#N)c1nc2ccccc2[nH]1,–,"inconclusive: 18.5 µM [inhibitor, single point]"
NC(=O)c1ccsc1NC(=O)COC(=O)c1cc(=O)[nH]c2ccccc12,inactive: 0%,–

# Retrieved by compound from the entries so far, 3 records:
SMILES,"activity change, negative = inhibition",Potency
C=CCn1c(=O)c(C(=O)NCc2ccccc2)c(O)c2ccccc21,inactive: -12.9%,–
C/C(=N/O)c1cccc(N2Cc3ccccc3C2)c1,–,"inconclusive: 9.28 µM [inhibitor, partial curve]"
CC(C)c1ccc(N2C(=O)NC(=O)/C(=C\C=C\c3ccco3)C2=O)cc1,inactive: -39%,–

# The list goes on:

SMILES,"activity change, negative = inhibition",Potency
CS(=O)(=O)N1CCc2cc(C(=O)OCC(=O)c3ccccc3)ccc21,inactive: -18.7%,–
O=C(NCc1ccco1)c1cccc(NS(=O)(=O)c2ccccc2F)c1,inactive: -0.93%,–
Cc1cccc(C(=O)NCC(=O)NCC(c2cccs2)N2CCOCC2)c1 (stereo not given),–,"inconclusive: 0.0657 µM [inhibitor, full curve, poor fit]"
CCN(CC)S(=O)(=O)c1ccc(NC(=O)CCNC(=O)c2ccccc2)cc1,–,"inconclusive: 1.85 µM [inhibitor, partial curve, poor fit]"
CCN1CCN(S(=O)(=O)c2ccc(Cl)c(C(=O)N(C)Cc3cccc(Cl)c3Cl)c2)CC1,–,"inconclusive: 18.5 µM [inhibitor, single point]"
COc1ccc(-c2cnc3nc(/N=C/N(C)C)nn3c2/N=C/N(C)C)cc1,–,"inconclusive: 8.28 µM [inhibitor, partial curve, poor fit]"
Cc1ccc(S(=O)(=O)N2CCN(C(=O)N3CCOCC3)C2c2ccc(N(C)C)cc2)cc1 (stereo not given),inactive: 3.21%,–
COc1cc(/C=N/N(c2ccccc2)c2ccccc2)ccc1O,–,"inconclusive: 18.5 µM [inhibitor, single point]"
CC(=O)c1cccc(NS(=O)(=O)c2ccc3c(c2)N(C(C)=O)CCO3)c1,–,"inconclusive: 18.5 µM [inhibitor, partial curve, poor fit]"
CC[C@@H]1CC=C[C@H]2[C@H]1C(=O)N(Cc1ccccc1)[C@H]2c1ccc(OC)c(Cl)c1,–,"inconclusive: 18.5 µM [inhibitor, single point]"
COc1ccc(OC(=O)/C=C/c2ccc([N+](=O)[O-])cc2)cc1,inactive: -19.7%,–
Cc1cccc(C)c1NC(=O)C1CCCN1C(=O)Nc1cccc(F)c1 (stereo not given),–,"inconclusive: 18.5 µM [inhibitor, single point]"
CCOC(=O)C(=O)NCC(c1cccs1)S(=O)(=O)c1ccc(C)cc1 (stereo not given),–,"inconclusive: 13.1 µM [inhibitor, partial curve, poor fit]"
CC(OC(=O)c1ccc(C(C)(C)C)cc1)C(=O)NC1CCCCC1C (stereo not given),–,"inconclusive: 10.4 µM [inhibitor, single point]"
C=Cc1ncc(OC)c2c1[nH]c1ccccc12,inactive: 34%,–
CCCCn1c(N)c(N(CC(C)C)C(=O)c2ccc(F)c(S(=O)(=O)N3CCOCC3)c2)c(=O)[nH]c1=O,–,"inconclusive: 11.7 µM [inhibitor, single point]"
O=C(N[C@@H](Cc1ccccc1)C(=O)OCc1ccccc1)c1nc[nH]c1C(=O)NC(c1ccccc1)c1ccccc1,–,active: 9.28 µM
Nc1ccc(Br)c2cccnc12,inactive: 27.4%,–
COCCn1ccc2c(OCC(=O)NCc3ccccc3)cccc2c1=O,inactive: -3.71%,–
Cc1onc(NC(=O)c2ccc([N+](=O)[O-])o2)c1Br,–,active: 5.86 µM
O=C(N/N=C/c1ccc(N2CCCCC2)o1)c1ccccc1,–,"inconclusive: 18.5 µM [inhibitor, single point]"
C/C(C/C(C)=C1/SC(=S)NC1=O)=C1\SC(=S)NC1=O,–,"inconclusive: 1.65 µM [inhibitor, partial curve, poor fit]"
CCN1C(=O)[C@H]2[C@@H](c3ccc(-c4ccc5c(c4)OCO5)c(OC)c3)N[C@@](Cc3ccccc3)(C(=O)OC)[C@H]2C1=O,–,"inconclusive: 0.586 µM [inhibitor, full curve, poor fit]"
CCC(O)(c1ccc(OC)cc1)C(CN1CCOCC1)c1ccccc1 (stereo not given),–,"inconclusive: 13.1 µM [inhibitor, single point]"

SMILES,"activity change, negative = inhibition",Potency
O=C1NC(=O)c2cc(Br)cc3cccc1c23,inactive: 2.42%,–
CCOc1ccccc1CN1CCN(Cc2cccc3nonc23)CC1CCO (stereo not given),–,"inconclusive: 2.33 µM [inhibitor, single point]"
CCOc1ccc(NC(=O)CSc2nnc(-c3ccoc3C)n2CC2CCCO2)cc1 (stereo not given),–,"inconclusive: 18.5 µM [inhibitor, single point]"
Cc1c(Cl)cccc1NC(=O)NCc1ccccn1,inactive: -3.52%,–
COc1ccc2nc(N3CCCCC3)c(/C=C3\SC(=S)NC3=O)cc2c1,inactive: 3.63%,–
O=C(CNC(=O)c1ccc(Cl)cc1)OCc1nc2ccccc2s1,inactive: 67%,–
Cc1ccc([N+](=O)[O-])cc1NC(=O)C1CCCC1,–,"inconclusive: 16.5 µM [inhibitor, partial curve, poor fit]"
O=C(CSc1ccc(-c2cccc([N+](=O)[O-])c2)nn1)N1CCCCCC1,–,"inconclusive: 13.1 µM [inhibitor, single point]"
CCOc1ccc(NCC(=O)Nc2ccc(Cl)cc2C)cc1,–,"inconclusive: 6.57 µM [inhibitor, partial curve, poor fit]"
O=S(=O)(Nc1ccncc1)c1cc(Cl)c(Cl)cc1Cl,–,active: 7.38 µM
N#Cc1ccc(-c2csc(NC(=O)C3CC3)n2)cc1,inactive: 101%,–
CCCCC(=O)Nc1cccc(-c2cn3ccsc3n2)c1,–,"inconclusive: 18.5 µM [inhibitor, single point]"
COC(=O)C1CCN(C(=O)CSc2nnc(-c3ccccc3)o2)CC1,–,"inconclusive: 10.4 µM [inhibitor, partial curve, poor fit]"
COc1ccc(-n2c(SCC(=O)N3CCCC(C)C3)nnc2-c2cccnc2)cc1 (stereo not given),–,"inconclusive: 7.38 µM [inhibitor, partial curve]"
COC(=O)[C@@]1(Cc2ccc(F)cc2)[C@H]2c3cc(C(=O)N4CCCC4)n(CCc4c[nH]c5ccc(OC)cc45)c3C[C@H]2CN1C(=O)c1ccccc1,–,active: 1.04 µM
O=C(O)CN=CC1=C(O)CC(c2ccccc2)CC1=O (stereo not given),–,"inconclusive: 4.65 µM [inhibitor, partial curve]"
COc1cc2nc(NCC3CCCO3)n3nc(-c4cccnc4)nc3c2cc1OC (stereo not given),–,"inconclusive: 0.165 µM [inhibitor, full curve, poor fit]"
Cc1ccc(C2=NN(S(=O)(=O)c3ccccc3)C(c3ccco3)C2)cc1 (stereo not given),–,active: 11.7 µM
NS(=O)(=O)c1ccc(NC(=O)C(Sc2ccccc2)c2ccccc2)cc1 (stereo not given),–,"inconclusive: 7.38 µM [inhibitor, partial curve, poor fit]"
Cc1nn(C)c(C)c1CN(C)S(=O)(=O)c1ccc2ccccc2c1,–,"inconclusive: 18.5 µM [inhibitor, single point]"
O=C(Cn1nc(CNc2ccc(Br)cc2)[n+]2c1CCCCC2)c1ccc([N+](=O)[O-])cc1,–,"inconclusive: 16.5 µM [inhibitor, single point]"
COc1ccccc1CNC(=O)COC(=O)Cc1c[nH]c2ccccc12,–,"inconclusive: 10.4 µM [inhibitor, single point]"
